Measured values: paper PMC9374667 (Communications Biology, 2022)
“And” between values parts separate entries of the source, which are not always exact repeats. Equal values may be shown once. Further values from the same series stand in other lists.

Legend:
Type in all cases: in vivo
db/db mice [1] = assay: Indirect calorimetry (CLAMS): VO2, VCO2, RER; set-up: Figure 3g (VCO2), individual mice 1-6: unit not given here; details: BBR 150mg/kg; for Figure 3e (VO2), individual mice 1-6: in mL/kg/h (unit assumed)
Protocol: (§1) At week 5 of treatment, basal metabolic parameters of mice were measured using the Comprehensive Lab Animal Monitoring System (CLAMS, Columbus Instruments, Columbus, OH). […] The number of times the infrared beams were broken along the X- or Y-axis was used to measure the dynamic activity of mice. The respiratory exchange rate (RER) was calculated using classical Lusk theory and equations RER = VCO2/VO2.

db/db mice [2] = assay: Spontaneous motor activity (CLAMS, infrared beam breaks); details: BBR 150mg/kg, individual mice 1-6
Protocol: as §1

db/db mice [3] = assay: Glucose tolerance test (GTT); set-up: unit not given here; details: BBR 150mg/kg; individual mice; time column 1 of 7 (time not printed)

**Q.** Which results are given for `COc1ccc2cc3[n+](cc2c1OC)CCc1cc2c(cc1-3)OCO2` [BBR, Berberine chloride dihydrate]?
**A.** Figure 3g (VCO2), individual mice 1-6 (db/db mice [1]; TIME 06:00:00): 2313.5 and 1840 and 1553.5 and 1397.5 and 1389.5 and 1693; Figure 3e (VO2), individual mice 1-6 (db/db mice [1]; TIME 06:00:00): 2660 and 2072 and 1864 and 1708 and 1672.5 and 1935.5; Figure 3g (VCO2), individual mice 1-6 (db/db mice [1]; TIME 07:00:00): 1600.5 and 1535.5 and 1875 and 1869 and 1617.5 and 1980; Figure 3e (VO2), individual mice 1-6 (db/db mice [1]; TIME 07:00:00): 1795 and 1708 and 2206.5 and 2273.5 and 1978.5 and 2274.5; Figure 3g (VCO2), individual mice 1-6 (db/db mice [1]; TIME 08:00:00): 1495 and 1825 and 1975 and 2243.5 and 2132.5 and 1535; Figure 3e (VO2), individual mice 1-6 (db/db mice [1]; TIME 08:00:00): 1715 and 2085 and 2314.5 and 2613.5 and 2534 and 1741.5; Figure 3g (VCO2), individual mice 1-6 (db/db mice [1]; TIME 1900-01-01 01:00:00): 2177 and 1670; Figure 3g (VCO2), individual mice 1-6 (db/db mice [1]; TIME 1900-01-01 02:00:00): 2187 and 1998.5 and 2588.5 and 2274 and 2168.5 and 1984.5; Figure 3g (VCO2), individual mice 1-6 (db/db mice [1]; TIME 1900-01-01 03:00:00): 2372.5 and 1993.5 and 2552 and 2306.5 and 1742 and 2336; Figure 3e (VO2), individual mice 1-6 (db/db mice [1]; TIME 1900-01-01 03:00:00): 2738 and 2324 and 3012 and 2802 and 2116 and 2720; Figure 3g (VCO2), individual mice 1-6 (db/db mice [1]; TIME 1900-01-01 04:00:00): 2538.5 and 2329.5 and 1944 and 1831 and 1537.5 and 2114; Figure 3e (VO2), individual mice 1-6 (db/db mice [1]; TIME 1900-01-01 04:00:00): 2910.5 and 2635.5 and 2276.5 and 2239 and 1918 and 2461; Figure 3g (VCO2), individual mice 1-6 (db/db mice [1]; TIME 1900-01-01 05:00:00): 2478.5 and 2023.5 and 1428 and 1354 and 1434.5 and 1684.5; Figure 3e (VO2), individual mice 1-6 (db/db mice [1]; TIME 1900-01-01 05:00:00): 2911 and 2308.5 and 1773.5 and 1662 and 1687 and 1963.5; Spontaneous motor activity (Figure 3j) (db/db mice [2]; TIME 06:00:00): 830.5 and 381.5 and 455 and 214.5 and 282.5 and 1467; Spontaneous motor activity (Figure 3j) (db/db mice [2]; TIME 07:00:00): 39 and 818.5 and 315 and 251 and 387.5 and 3173.5; Spontaneous motor activity (Figure 3j) (db/db mice [2]; TIME 08:00:00): 96 and 381.5 and 953 and 773 and 549 and 1084; Spontaneous motor activity (Figure 3j) (db/db mice [2]; TIME 1900-01-01 01:00:00): 617 and 872.5; Spontaneous motor activity (Figure 3j) (db/db mice [2]; TIME 1900-01-01 02:00:00): 233.5 and 654 and 915 and 190.5 and 777 and 170; Spontaneous motor activity (Figure 3j) (db/db mice [2]; TIME 1900-01-01 03:00:00): 832 and 535.5 and 566 and 30.5 and 303.5 and 84.5; Spontaneous motor activity (Figure 3j) (db/db mice [2]; TIME 1900-01-01 04:00:00): 988 and 900 and 503.5 and 436 and 774 and 437.5; Spontaneous motor activity (Figure 3j) (db/db mice [2]; TIME 1900-01-01 05:00:00): 626 and 807 and 81.5 and 1582 and 453 and 418; blood glucose level (db/db mice [3]): 14.0 and 15.5 and 13.3
